Assay results from the supplement of paper PMC7238544.
Where a name gives a salt, the structure may show the parent alone. ± gives the standard deviation of the averaged measurements. The list shows a part of the results. The data scatter; read single values as rough.

Assays:
[1] = test system: hAMSC donor 1; assay: Hoechst total cell count ratio vs vehicle control; higher = more cells (less toxicity)
[2] = test system: hAMSC donor 2; assay: as above
[3] = test system: hAMSC donor 1; assay: transgenic luciferase activity (RLU/mg protein) fold change vs vehicle control (ratio); higher = more transgene expression
[4] = test system: hAMSC donor 2; assay: as above
[5] = test system: hAMSC donor 1; assay: transfection efficiency (EGFP+ cells / Hoechst count) fold change vs vehicle control (ratio); hAMSC are human adipose-derived mesenchymal stem cells given an EGFP-luciferase plasmid by lipofection; higher = enhanced transfection
[6] = test system: hAMSC donor 2; assay: as above
[7] = priming compound concentration 0.2 µM
[8] = priming compound concentration 1.7 µM
[9] = priming compound concentration 13 µM

Structure (SMILES) | Hoechst total cell count ratio [1, 7] | Hoechst total cell count ratio [1, 8] | Hoechst total cell count ratio [1, 9] | Hoechst total cell count ratio [2, 7] | Hoechst total cell count ratio [2, 8] | Hoechst total cell count ratio [2, 9] | transgenic luciferase activity [3, 8] | transgenic luciferase activity [4, 7] | transgenic luciferase activity [4, 8] | transgenic luciferase activity [4, 9] | transfection efficiency [5, 7] | transfection efficiency [5, 8] | transfection efficiency [5, 9] | transfection efficiency [6, 7] | transfection efficiency [6, 8] | transfection efficiency [6, 9] | transgenic luciferase activity [3, 9]
CNCCC=C1c2ccccc2CCc2ccccc21 [Nortriptyline hydrochloride] | 1.28 ± 0.2 | 1.14 ± 0.086 | 1.25 ± 0.12 | 1.21 ± 0.31 | 1.32 ± 0.12 | 2.38 ± 0.21 | 0.694 ± 0.38 | 0.485 ± 0.032 | 0.513 ± 0.12 | 0.139 ± 0.068 | 1.04 ± 0.41 | 1.79 ± 0.42 | 0.559 ± 0.092 | 1.41 ± 0.07 | 0.938 ± 0.2 | 0.916 ± 0.082 | –
CC[C@H](C)C(=O)O[C@H]1C[C@@H](C)C=C2C=C[C@H](C)[C@H](CC[C@@H]3C[C@@H](O)CC(=O)O3)[C@H]21 [Lovastatin] | 0.986 ± 0.2 | 0.874 ± 0.24 | 1.03 ± 0.12 | 1.09 ± 0.05 | 0.99 ± 0.042 | 0.965 ± 0.083 | – | 0.788 ± 0.17 | 0.964 ± 0.05 | 0.827 ± 0.22 | 0.964 ± 0.14 | 1.09 ± 0.6 | 1.19 ± 0.15 | 1.11 ± 0.1 | 1.13 ± 0.1 | 1.26 ± 0.09 | 0.67 ± 0.12
OCCOCCN1CCN(C(c2ccccc2)c2ccc(Cl)cc2)CC1 (centres undefined) [Hydroxyzine pamoate] | 1.23 ± 0.15 | 1.48 ± 0.26 | 1.5 ± 0.13 | 1.12 ± 0.069 | 1.19 ± 0.063 | 1.01 ± 0.29 | – | 0.756 ± 0.13 | 0.689 ± 0.042 | 0.587 ± 0.17 | 1.08 ± 0.24 | 1.27 ± 0.34 | 0.874 ± 0.13 | 1.06 ± 0.21 | 0.999 ± 0.083 | 0.917 ± 0.1 | 0.817 ± 0.21
C[C@H]1COc2c(N3CCN(C)CC3)c(F)cc3c(=O)c(C(=O)O)cn1c23 [Levofloxacin] | 1.07 ± 0.13 | 1.09 ± 0.11 | 1.16 ± 0.15 | 0.887 ± 0.22 | 1.66 ± 0.063 | 2.38 ± 0.55 | 2.19 ± 0.92 | 0.36 ± 0.059 | 0.355 ± 0.016 | 0.151 ± 0.04 | 1.48 ± 0.62 | 1.12 ± 0.33 | 0.898 ± 0.34 | 1.31 ± 0.28 | 0.763 ± 0.069 | 1.14 ± 0.089 | –
Cc1c(O)c(=O)ccn1C [Deferiprone] | 1.34 ± 0.15 | 1.17 ± 0.022 | 0.999 ± 0.17 | 1.02 ± 0.71 | 0.928 ± 0.098 | 1.97 ± 0.2 | 1.42 ± 0.83 | 0.71 ± 0.23 | 0.709 ± 0.028 | 0.0946 ± 0.065 | 0.53 ± 0.079 | 1.28 ± 0.4 | 0.896 ± 0.38 | 1.19 ± 0.11 | 0.8 ± 0.12 | 0.836 ± 0.094 | –
NCC(=O)CCC(=O)O [Aminolevulinic acid] | 1.42 ± 0.32 | 1.11 ± 0.16 | 0.875 ± 0.021 | 1.19 ± 0.14 | 0.973 ± 0.055 | 1.48 ± 0.43 | 3.11 ± 1.7 | 0.811 ± 0.38 | 0.709 ± 0.32 | 1.05 ± 0.49 | 0.91 ± 0.11 | 1.29 ± 0.49 | 1.26 ± 0.19 | 1.57 ± 0.42 | 1.01 ± 0.073 | 1.61 ± 0.67 | –
Clc1ccc2nsnc2c1NC1=NCCN1 [Tizanidine hydrochloride] | 0.953 ± 0.032 | 1.08 ± 0.1 | 0.986 ± 0.06 | 0.941 ± 0.33 | 1.3 ± 0.17 | 2.08 ± 0.64 | 2.55 ± 0.74 | 0.41 ± 0.059 | 0.741 ± 0.12 | 0.0764 ± 0.011 | 1.1 ± 0.21 | 0.843 ± 0.14 | 0.848 ± 0.07 | 1.29 ± 0.13 | 1.19 ± 0.047 | 1.13 ± 0.23 | –
CC(C)Cc1ccc(C(C)C(=O)O)cc1 (centres undefined) [Ibuprofen] | 0.91 ± 0.09 | 0.988 ± 0.08 | 0.826 ± 0.09 | 1.18 ± 0.49 | 1.3 ± 0.21 | 1.19 ± 0.37 | 1.79 ± 1 | 0.714 ± 0.098 | 2.72 ± 1.8 | 0.488 ± 0.28 | 0.926 ± 0.19 | 0.954 ± 0.14 | 0.895 ± 0.23 | 1.46 ± 0.31 | 0.938 ± 0.071 | 1.19 ± 0.24 | –
COc1ccc(CN2CCN(C(c3ccc(F)cc3)c3ccc(F)cc3)CC2)c(OC)c1OC [Lomerizine dihydrochloride] | 1.1 ± 0.11 | 1.13 ± 0.15 | 1.14 ± 0.088 | 1.32 ± 0.56 | 1.64 ± 0.53 | 3.89 ± 0.54 | 1.81 ± 1.1 | 0.488 ± 0.088 | 0.417 ± 0.034 | 0.104 ± 0.03 | 1.31 ± 0.23 | 0.956 ± 0.98 | 0.719 ± 0.3 | 1.29 ± 0.31 | 1.01 ± 0.18 | 0.803 ± 0.13 | –
Cc1noc(NS(=O)(=O)c2ccc(N)cc2)c1C [Sulfisoxazole] | 1.18 ± 0.23 | 1.16 ± 0.16 | 1.13 ± 0.31 | 1.18 ± 0.3 | 1.37 ± 0.05 | 1.66 ± 0.51 | 2.78 ± 1.2 | 0.529 ± 0.12 | 0.345 ± 0.065 | 0.167 ± 0.0091 | 1.11 ± 0.26 | 1.67 ± 0.48 | 1.05 ± 0.36 | 1.26 ± 0.44 | 0.905 ± 0.036 | 1.15 ± 0.43 | –
CN1CCN(CC/C=C2/c3ccccc3Sc3ccc(S(=O)(=O)N(C)C)cc32)CC1 [Thiothixene] | 1.22 ± 0.073 | 1.5 ± 0.19 | 1.4 ± 0.043 | 1.08 ± 0.05 | 1.31 ± 0.2 | 1.56 ± 0.14 | – | 0.797 ± 0.13 | 0.535 ± 0.32 | 0.389 ± 0.041 | 0.914 ± 0.42 | 1.02 ± 0.21 | 0.656 ± 0.081 | 0.932 ± 0.051 | 0.918 ± 0.21 | 0.458 ± 0.085 | 0.302 ± 0.08
CC(=O)OCC(=O)[C@@]1(O)CC[C@H]2[C@@H]3CCC4=CC(=O)CC[C@]4(C)[C@H]3[C@@H](O)C[C@@]21C [Cortisol 21-acetate] | 1.38 ± 0.048 | 2.2 ± 0.15 | 1.53 ± 0.15 | 1.19 ± 0.073 | 1.07 ± 0.058 | 1.03 ± 0.21 | – | 0.952 ± 0.22 | 2.14 ± 0.038 | 2.96 ± 0.99 | 0.839 ± 0.09 | 1.12 ± 0.29 | 1.09 ± 0.25 | 1.18 ± 0.21 | 1.5 ± 0.27 | 1.39 ± 0.3 | 5.07 ± 1.3
Nc1nc(Cl)nc2c1ncn2[C@H]1C[C@H](O)[C@@H](CO)O1 [Cladribine] | 1.26 ± 0.2 | 1.03 ± 0.16 | 0.766 ± 0.14 | 1.15 ± 0.35 | 1.25 ± 0.45 | 1.39 ± 0.35 | 1.78 ± 0.33 | 0.596 ± 0.27 | 0.596 ± 0.22 | 0.15 ± 0.055 | 1.13 ± 0.25 | 1.77 ± 0.11 | 1.61 ± 0.73 | 1.1 ± 0.31 | 0.949 ± 0.16 | 1.21 ± 0.31 | –
C[C@]12CC[C@@H]3c4ccc(OS(=O)(=O)O)cc4CC[C@H]3[C@@H]1CCC2=O [Estrone 3-sulfate sodium salt] | 1.02 ± 0.11 | 0.982 ± 0.1 | 0.744 ± 0.098 | 1.04 ± 0.3 | 1.21 ± 0.064 | 1.26 ± 0.094 | 0.714 ± 0.54 | 0.896 ± 0.19 | 0.66 ± 0.11 | 0.203 ± 0.023 | 0.759 ± 0.1 | 1.22 ± 0.089 | 0.985 ± 0.36 | 1.35 ± 0.12 | 0.979 ± 0.1 | 1.07 ± 0.048 | –
